No constants are given. Whether binding was seen depends on the method and setting. Some entries that bind do so weakly or less than the wild type.
Target: T1, recombinant PRDX4 (Homo sapiens (Human)) (UniProt Q13162)
T1 sequence: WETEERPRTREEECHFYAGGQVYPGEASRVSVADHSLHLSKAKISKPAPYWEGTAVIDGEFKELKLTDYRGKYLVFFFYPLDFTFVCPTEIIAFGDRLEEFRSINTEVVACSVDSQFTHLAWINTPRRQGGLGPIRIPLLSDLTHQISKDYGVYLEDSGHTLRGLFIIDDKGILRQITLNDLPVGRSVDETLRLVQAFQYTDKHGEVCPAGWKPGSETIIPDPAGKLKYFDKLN
Assay: immunoprecipitation of 10 ng recombinant PRDX4 with 11F2 beads, immunoblot with a commercial PRDX4 antibody

B1: antibody 11F2 (antibody, V domains shown)
VH: QVQLQQSGAELVKPGTSVKLSCKASGYTFSTHHMHWIKETTGQGLEWIGIINPGNGGTKYNVKFKGKATLTVDSSSSTAFMQLGSLTPEDSAVYYCARGNPASFDYWGQGVMVTVSS
VL: DIQMTQSPSFLSASVGDRVTINCKASQNIYKYLNWYQQKLGEAPKRLIYNTNNLETDIPSRFSGSGSGTDYTFTISSLQPEDFATYFCLQHSNFPFTFGSGTKLEIKR
binding: binds
